Assay results from PubChem BioAssay AID1487 (National Center for Advancing Translational Sciences (NCATS), 2009).
Values joined by “and” are separate entries in the source; they are usually repeats but may differ in a detail not shown here. Identical values can stand only once. The list shows a part of the results. Shown are side measurements of this screen, not its main read-out; they come without a call. Most of these compounds were active or inconclusive in the main read-out, so they are no random draw. Potencies come from curve fits of mixed quality, noted in brackets.

Assay: qHTS Assay for Modulators of Lamin A Splicing
Conditions: HeLa LMNA splicing GFP/RFP minigene ratio, 48 h
Method in brief: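 S3 HeLa cells stably expressing lamin A-EGFP splicing minigene plus DsRed2, 600 cells/well, 48 h compound exposure at 37C. Laser-scanning cytometry; analysed as GFP (500-530 nm)/RFP (575-640 nm) total intensity ratio; 0.5% DMSO vehicle.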

[1] = measured here: RFP viability control channel
[2] = measured here: GFP splicing reporter channel

SMILES: COc1cccc(C(=O)NCC(c2ccc(N(C)C)cc2)N2CCOCC2)c1OC (stereo unspecified)
- AC50 [1]: 2.24 µM [rising, full curve, poor fit]

SMILES: COc1ccc(N2CCC(CNC(=O)Nc3ccc(Cl)cc3)C2)cc1 (stereo unspecified)
- AC50 [2]: 5.01 µM [falling, partial curve, poor fit]

SMILES: CCc1nc2sc3c(c2c(=O)n1N)CC(C)(C)OC3
- AC50 [1]: 1.78 µM [falling, partial curve]

SMILES: O=C(c1ccc2c(Cl)c3c(nc2c1)CCCC3)N1CCC(N2CCCCC2)CC1
- AC50 [1]: 17.8 µM [rising, single point]

SMILES: NS(=O)(=O)Cc1noc2ccccc12
- AC50 [2]: 17.8 µM [falling, single point]
- AC50 [1]: 0.891 µM [falling, single point]

SMILES: NNc1nc2c(-c3ccc(F)cc3)nnn2c2ccccc12
- AC50 [2]: 28.2 µM [falling, partial curve]

SMILES: Cc1nn(C)c2c1c(-c1ccccc1)cc(=O)n2CC(=O)NC(C)(C)C
- AC50 [2]: 7.94 µM [falling, partial curve, poor fit]
- AC50 [1]: 0.1 µM [falling, full curve, poor fit]

SMILES: CCOC(=O)/C(N=Nc1c(Br)cc(Br)cc1Br)=C(\C)O
- AC50 [2]: 35.5 µM [falling, single point]
- AC50 [1]: 35.5 µM [falling, single point]

SMILES: c1ccc(CCNc2ccnc3cc4ccccc4cc23)cc1
- AC50 [2]: 15.8 µM [falling, single point]
- AC50 [1]: 3.16 µM [falling, single point]

SMILES: COc1cc(/C=C(\C#N)c2ccccn2)ccc1OCC(=O)Nc1ccc(Br)cc1
- AC50 [2]: 17.8 µM [falling, single point]
- AC50 [1]: 35.5 µM [falling, single point]

SMILES: CCOC(=O)c1cnc(-n2nc(C)cc2C)nc1NC(C)c1ccccc1 (stereo unspecified)
- AC50 [1]: 12.6 µM [rising, partial curve]

SMILES: CCC(Sc1nc(C)cc(=O)[nH]1)C(=O)Nc1sc2c(c1C#N)CCCC2 (stereo unspecified)
- AC50 [1]: 17.8 µM [rising, single point]

SMILES: C=CCn1c(SCC(=O)N2CCN(c3ccc(F)cc3)CC2)nnc1-c1ccco1
- AC50 [2]: 14.1 µM [rising, single point]
- AC50 [1]: 17.8 µM [rising, partial curve]

SMILES: CN(C)CCN(Cc1ccc(Cl)cc1)c1ccccn1
- AC50 [2]: 10 µM [falling, partial curve, poor fit]

SMILES: O=C(c1cccc2ccccc12)C1CCCN(C(=O)CCN2CCCO2)C1 (stereo unspecified)
- AC50 [2]: 28.2 µM [falling, partial curve]
- AC50 [1]: 10 µM [falling, partial curve, poor fit]

SMILES: O=C(Nc1ncc(Cc2ccc(SC(F)F)cc2)s1)c1ccc(OC(F)F)cc1
- AC50 [2]: 0.631 µM [rising, full curve]
- AC50 [1]: 0.631 µM [rising, full curve]

SMILES: CC(C)Nc1ncnc2ccc(Br)cc12
- AC50 [2]: 3.55 µM [rising, full curve]
- AC50 [1]: 7.94 µM [rising, partial curve]

SMILES: CCCC(=O)N1CCN(c2ccc([N+](=O)[O-])cc2Cl)CC1
- AC50 [2]: 0.562 µM [rising, full curve]

SMILES: CCC(=O)Nc1cccc(-c2cn3c(C)csc3n2)c1
- AC50 [2]: 6.31 µM [rising, single point]

SMILES: COc1ccc2[nH]cc(CCNc3nc(-c4cccc(NS(C)(=O)=O)c4)nc4ccccc34)c2c1
- AC50 [2]: 35.5 µM [falling, single point]
- AC50 [1]: 35.5 µM [falling, single point]

SMILES: CSc1nc2ccccc2cc1/C=C(\C#N)c1ccccc1
- AC50 [2]: 5.01 µM [falling, partial curve]
- AC50 [1]: 5.01 µM [falling, partial curve]

SMILES: Clc1ccc(-c2ccc(/C=N/Nc3cc(N4CCOCC4)nc(N4CCOCC4)n3)o2)cc1
- AC50 [1]: 31.6 µM [rising, single point]

SMILES: Cc1ccc(-c2cc(C(=O)N(C)Cc3cnn(C)c3C)c3cc(Br)ccc3n2)cc1
- AC50 [2]: 10 µM [rising, partial curve, poor fit]
- AC50 [1]: 22.4 µM [rising, partial curve]

SMILES: COc1ccc(O[C@H]2C=C[C@@H](c3ccccc3)O[C@@H]2CO/N=C(\C)CCN2CCCCc3nc(C)c(C)cc32)cc1
- AC50 [2]: 12.6 µM [rising, partial curve]
- AC50 [1]: 22.4 µM [rising, partial curve]

SMILES: C/C(=N\NC(=O)c1cccc(N/N=C(\C)c2ccncc2)c1)c1ccncc1
- AC50 [1]: 10 µM [falling, partial curve]

SMILES: COc1ccc(NC(=S)N(Cc2ccc(N(C)C)cc2)Cc2ccco2)cc1
- AC50 [1]: 12.6 µM [rising, partial curve]

SMILES: Clc1cccc(Cl)c1COn1nnc2ccccc21
- AC50 [2]: 35.5 µM [rising, single point]

SMILES: C[C@@H](CNC1CCCCC1)OC(=O)c1ccccc1
- AC50 [2]: 0.00224 µM [falling, full curve, poor fit]
- AC50 [1]: 12.6 µM [falling, single point]

SMILES: O=C(NCc1ccc(F)cc1)C1CCN(S(=O)(=O)c2ccc3c(c2)OCCCO3)CC1
- AC50 [1]: 11.2 µM [rising, partial curve, poor fit]

SMILES: O=C(c1ccc2c(=O)n3c(nc2c1)CCCCC3)N1CCN(C(c2ccccc2)c2ccccc2)CC1
- AC50 [1]: 35.5 µM [rising, single point]

SMILES: O=C(Nc1ccccc1C(=O)OCc1cc(=O)n2ccsc2n1)c1cccc(F)c1
- AC50 [2]: 35.5 µM [falling, single point]
- AC50 [1]: 35.5 µM [falling, partial curve, poor fit]

SMILES: O=C(Nc1cc(S(=O)(=O)Nc2ccc(Cl)cc2)ccc1N1CCCCC1)c1ccc(F)cc1Cl
- AC50 [1]: 35.5 µM [rising, single point]

SMILES: COc1ccc2c(c1)C(=O)N(CCc1ccc(S(=O)(=O)NC(=O)NC3CCCCC3)cc1)C(=O)C2(C)C
- AC50 [1]: 1.41 µM [falling, full curve]

SMILES: COC(=O)C(C)N1C(=O)S/C(=C/c2cc(C)n(C(C)C)c2C)C1=O (stereo unspecified)
- AC50 [2]: 12.6 µM [rising, single point]
- AC50 [1]: 17.8 µM [rising, single point]

SMILES: CCOc1ccccc1Nc1sc(C(=O)c2ccc(Cl)cc2)c(N)c1C#N
- AC50 [1]: 35.5 µM [falling, single point]

SMILES: CN(CCCN1CCOCC1)Cc1cn(C)nc1-c1ccccc1F
- AC50 [1]: 0.0158 µM [falling, full curve, poor fit]

SMILES: CN(C)S(=O)(=O)c1cc(NC(=O)CN2C(=O)NC3(CCCc4ccccc43)C2=O)ccc1Cl (stereo unspecified)
- AC50 [2]: 11.2 µM [rising, single point]
- AC50 [1]: 14.1 µM [rising, partial curve]

SMILES: CC1=NCCN1S(=O)(=O)c1ccc(Br)c(C)c1
- AC50 [2]: 35.5 µM [falling, single point]

SMILES: CCOC(=O)c1ccc2nc3c(cc2c1)CCS3
- AC50 [2]: 35.5 µM [rising, single point]
- AC50 [1]: 2 µM [rising, partial curve]

SMILES: COc1ccc([C@@H]2Sc3ccccc3N(CCN(C)C)C(=O)[C@@H]2OC(C)=O)cc1
- AC50 [2]: 12.6 µM [falling, partial curve, poor fit] and 20 µM [falling, partial curve, poor fit] and 794 nM [falling, partial curve]
- AC50 [1]: 25.1 µM [rising, single point] and 1.12 µM [falling, full curve]

SMILES: COC(=O)[C@@H](N)CS
- AC50 [2]: 0.0141 µM [falling, full curve, poor fit]

SMILES: CC(C)c1onc(C(=O)Nc2cccnc2Cl)c1[N+](=O)[O-]
- AC50 [2]: 11.2 µM [rising, partial curve, poor fit]
- AC50 [1]: 11.2 µM [rising, partial curve, poor fit]

SMILES: CN1CCN(C(=S)Nc2cc(S(=O)(=O)N3CCOCC3)ccc2Cl)CC1
- AC50 [2]: 0.02 µM [falling, full curve, poor fit]

SMILES: O=C(NCc1ccco1)C1CCCN1C(=O)Nc1ccccc1Cl (stereo unspecified)
- AC50 [2]: 0.02 µM [rising, full curve]

SMILES: Cc1ccccc1S(=O)(=O)NNC(=O)C(=O)NNc1ccccn1
- AC50 [1]: 10 µM [rising, partial curve, poor fit]

SMILES: Cn1c(=O)n(C)c2cc([N+](=O)[O-])c(N3CCN(C(=O)c4ccc(F)cc4)CC3)cc21
- AC50 [2]: 3.55 µM [falling, full curve, poor fit]
- AC50 [1]: 6.31 µM [falling, full curve]

SMILES: O=C(C1CCN(c2ncnc3c2nc2n3CCCCC2)CC1)N1CCN(c2ccccc2)CC1
- AC50 [2]: 35.5 µM [falling, single point]

SMILES: N#CCCN(Cc1cccnc1)C(=S)NC(=O)c1ccco1
- AC50 [1]: 2.51 µM [rising, partial curve, poor fit]

SMILES: O=C(/C=C/c1ccc(-c2ccccc2[N+](=O)[O-])o1)c1ccc(F)cc1
- AC50 [2]: 14.1 µM [falling, single point]
- AC50 [1]: 25.1 µM [falling, single point]

SMILES: Cc1ccc(NC(=O)CSc2n[nH]c(-c3ccco3)n2)c(C)c1
- AC50 [1]: 0.0178 µM [falling, full curve, poor fit]

SMILES: Cc1nc(SCC(=O)c2ccc(F)cc2)n[nH]1
- AC50 [2]: 6.31 µM [rising, single point]

SMILES: CC(=O)NC1(C(F)(F)F)NC(=O)N(c2ccc(F)cc2)C1=O (stereo unspecified)
- AC50 [2]: 6.31 µM [rising, single point]

SMILES: CCN(CC)c1ccc(NC(=O)c2sc3nc(-c4ccccc4)cn3c2C)cc1
- AC50 [2]: 0.0501 µM [falling, full curve]
- AC50 [1]: 0.0355 µM [falling, full curve]
